From the supplement of paper PMC10849652
The other results are listed elsewhere or left out.

Amino acid sequences for entries named in this document (tags omitted). A change or cut given only in a name is not applied to a line headed by its entry.
UniProt O60826, whole entry, looked up: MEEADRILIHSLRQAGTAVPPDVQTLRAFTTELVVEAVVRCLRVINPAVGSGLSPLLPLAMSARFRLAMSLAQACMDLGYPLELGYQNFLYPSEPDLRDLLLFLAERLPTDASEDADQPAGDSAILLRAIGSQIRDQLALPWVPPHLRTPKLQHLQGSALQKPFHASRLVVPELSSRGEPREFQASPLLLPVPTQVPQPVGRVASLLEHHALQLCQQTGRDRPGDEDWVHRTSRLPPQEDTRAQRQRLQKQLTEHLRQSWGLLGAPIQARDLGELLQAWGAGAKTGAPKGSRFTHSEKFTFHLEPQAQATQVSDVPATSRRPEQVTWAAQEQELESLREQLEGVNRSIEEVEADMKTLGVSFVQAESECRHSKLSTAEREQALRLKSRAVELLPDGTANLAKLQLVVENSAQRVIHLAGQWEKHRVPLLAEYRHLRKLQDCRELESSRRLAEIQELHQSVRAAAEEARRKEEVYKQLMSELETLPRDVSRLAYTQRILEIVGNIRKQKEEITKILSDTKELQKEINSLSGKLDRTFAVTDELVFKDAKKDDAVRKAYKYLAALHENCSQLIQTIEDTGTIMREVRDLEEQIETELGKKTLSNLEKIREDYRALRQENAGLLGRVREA
UniProt Q96MW1: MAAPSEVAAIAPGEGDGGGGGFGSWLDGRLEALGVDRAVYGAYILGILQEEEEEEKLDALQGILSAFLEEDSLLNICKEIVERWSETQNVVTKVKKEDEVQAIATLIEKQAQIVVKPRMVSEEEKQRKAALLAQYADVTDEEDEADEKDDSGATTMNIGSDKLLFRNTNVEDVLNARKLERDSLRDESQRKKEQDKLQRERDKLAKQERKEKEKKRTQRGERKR
UniProt P16152: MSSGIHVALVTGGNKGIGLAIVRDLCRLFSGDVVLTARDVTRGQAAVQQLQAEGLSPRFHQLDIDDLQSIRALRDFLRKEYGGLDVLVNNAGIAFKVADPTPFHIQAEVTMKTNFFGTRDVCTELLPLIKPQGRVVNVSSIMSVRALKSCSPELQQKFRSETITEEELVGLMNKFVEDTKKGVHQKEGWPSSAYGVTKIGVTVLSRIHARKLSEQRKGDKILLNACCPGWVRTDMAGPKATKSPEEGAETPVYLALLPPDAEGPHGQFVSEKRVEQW
UniProt Q16543: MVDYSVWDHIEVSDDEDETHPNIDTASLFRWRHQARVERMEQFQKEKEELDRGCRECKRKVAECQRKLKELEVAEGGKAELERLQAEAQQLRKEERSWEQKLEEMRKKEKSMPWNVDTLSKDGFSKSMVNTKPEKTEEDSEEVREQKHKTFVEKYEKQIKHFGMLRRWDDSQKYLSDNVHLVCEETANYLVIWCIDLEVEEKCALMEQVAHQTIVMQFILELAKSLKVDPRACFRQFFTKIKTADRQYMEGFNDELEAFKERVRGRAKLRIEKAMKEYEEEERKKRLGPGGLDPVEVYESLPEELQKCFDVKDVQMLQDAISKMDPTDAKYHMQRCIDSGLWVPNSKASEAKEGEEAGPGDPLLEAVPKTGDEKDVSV
UniProt Q9ULG6: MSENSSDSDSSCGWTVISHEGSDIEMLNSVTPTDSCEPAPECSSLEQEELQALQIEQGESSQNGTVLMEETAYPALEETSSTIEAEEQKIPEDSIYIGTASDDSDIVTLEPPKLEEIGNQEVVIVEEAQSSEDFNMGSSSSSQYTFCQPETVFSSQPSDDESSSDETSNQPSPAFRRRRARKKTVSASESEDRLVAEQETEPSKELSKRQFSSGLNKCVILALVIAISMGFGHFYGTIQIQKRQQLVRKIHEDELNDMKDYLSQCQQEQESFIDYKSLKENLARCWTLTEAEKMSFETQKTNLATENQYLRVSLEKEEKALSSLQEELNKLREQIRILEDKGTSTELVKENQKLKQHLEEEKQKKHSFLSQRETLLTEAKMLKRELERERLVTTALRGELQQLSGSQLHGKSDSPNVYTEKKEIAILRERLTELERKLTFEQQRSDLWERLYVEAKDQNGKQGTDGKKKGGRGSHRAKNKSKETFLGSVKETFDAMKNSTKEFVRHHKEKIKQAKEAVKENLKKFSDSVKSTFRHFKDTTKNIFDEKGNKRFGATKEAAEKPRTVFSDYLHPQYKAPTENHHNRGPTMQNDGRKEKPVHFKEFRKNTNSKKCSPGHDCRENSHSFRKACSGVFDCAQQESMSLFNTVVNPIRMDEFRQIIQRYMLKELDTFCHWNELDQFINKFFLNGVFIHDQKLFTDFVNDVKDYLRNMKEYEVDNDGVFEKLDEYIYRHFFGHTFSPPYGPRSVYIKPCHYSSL
UniProt Q567U6, whole entry, looked up: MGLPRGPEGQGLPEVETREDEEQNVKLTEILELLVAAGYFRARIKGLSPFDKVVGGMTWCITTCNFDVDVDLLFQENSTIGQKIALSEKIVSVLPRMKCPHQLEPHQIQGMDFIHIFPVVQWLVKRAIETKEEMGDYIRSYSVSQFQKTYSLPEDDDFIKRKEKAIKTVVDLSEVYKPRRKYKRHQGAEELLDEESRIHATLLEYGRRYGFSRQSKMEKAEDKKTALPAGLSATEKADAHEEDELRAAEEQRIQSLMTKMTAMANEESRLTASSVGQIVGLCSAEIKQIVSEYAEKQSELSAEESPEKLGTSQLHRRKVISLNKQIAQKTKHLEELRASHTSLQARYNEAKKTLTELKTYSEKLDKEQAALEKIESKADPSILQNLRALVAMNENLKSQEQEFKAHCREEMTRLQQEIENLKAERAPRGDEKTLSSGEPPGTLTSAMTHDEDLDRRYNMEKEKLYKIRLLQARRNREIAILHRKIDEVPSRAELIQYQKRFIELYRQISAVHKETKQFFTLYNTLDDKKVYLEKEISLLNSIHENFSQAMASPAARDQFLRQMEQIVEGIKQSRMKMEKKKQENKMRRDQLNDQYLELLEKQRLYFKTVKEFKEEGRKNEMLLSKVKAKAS
UniProt P55212: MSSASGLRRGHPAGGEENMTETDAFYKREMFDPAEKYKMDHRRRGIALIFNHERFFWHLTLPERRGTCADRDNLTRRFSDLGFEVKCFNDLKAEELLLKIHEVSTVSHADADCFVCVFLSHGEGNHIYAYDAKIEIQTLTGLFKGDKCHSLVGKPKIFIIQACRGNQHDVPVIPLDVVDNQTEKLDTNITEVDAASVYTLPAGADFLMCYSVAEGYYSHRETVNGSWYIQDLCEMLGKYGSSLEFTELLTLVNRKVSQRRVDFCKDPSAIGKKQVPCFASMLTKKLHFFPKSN
UniProt P30260, whole entry, looked up: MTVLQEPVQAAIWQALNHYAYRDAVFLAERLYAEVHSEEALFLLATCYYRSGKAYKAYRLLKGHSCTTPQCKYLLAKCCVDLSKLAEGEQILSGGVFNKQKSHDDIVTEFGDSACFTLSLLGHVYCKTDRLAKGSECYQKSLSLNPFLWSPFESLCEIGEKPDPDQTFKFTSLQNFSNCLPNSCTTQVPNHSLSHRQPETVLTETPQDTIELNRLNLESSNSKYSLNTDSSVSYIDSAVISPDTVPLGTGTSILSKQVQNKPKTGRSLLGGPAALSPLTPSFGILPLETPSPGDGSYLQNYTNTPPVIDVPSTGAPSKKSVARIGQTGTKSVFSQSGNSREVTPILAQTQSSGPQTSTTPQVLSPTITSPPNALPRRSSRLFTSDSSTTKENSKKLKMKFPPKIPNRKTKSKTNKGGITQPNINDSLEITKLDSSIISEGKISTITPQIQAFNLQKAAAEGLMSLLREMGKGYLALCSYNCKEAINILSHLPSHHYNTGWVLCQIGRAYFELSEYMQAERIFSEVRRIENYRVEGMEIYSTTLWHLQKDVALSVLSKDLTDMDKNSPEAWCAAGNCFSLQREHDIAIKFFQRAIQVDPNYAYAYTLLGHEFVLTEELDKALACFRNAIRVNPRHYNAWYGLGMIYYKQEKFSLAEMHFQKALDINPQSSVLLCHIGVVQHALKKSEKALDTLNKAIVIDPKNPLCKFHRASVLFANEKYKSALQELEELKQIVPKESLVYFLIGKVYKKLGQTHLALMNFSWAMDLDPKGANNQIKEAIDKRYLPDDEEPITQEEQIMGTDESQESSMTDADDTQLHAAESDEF

Experiments:
Assay in all cases: log2 fold change, soluble protein after heating vs DMSO (PISA); higher = thermal stabilisation; K562 cells, 10 uM, 30 min; active = over 0.2 and 3.5 SD of the protein, either way, in both replicates (recomputed)
bafetinib = compound: Cc1ccc(NC(=O)c2ccc(CN3CC[C@H](N(C)C)C3)c(C(F)(F)F)c2)cc1Nc1nccc(-c2cncnc2)n1 [bafetinib]
Procedure, shortened: (§1)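 Aliquots of K562 cells (2×10^6 cells/mL) treated with 10 μM compound for 30 min were heated for 3 min over 48°C-58°C. After pooling and extraction in PBS with 0.5% NP-40 at 4°C, soluble protein from a 21,000xg, 90 min spin was quantified by TMTpro 16plex LC-MS/MS with channel sums equalised. Thermal stability is expressed against control samples, from duplicates, as a log2 fold change.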

[1] = compound: Cc1cccc(CC(=O)N2CCc3c2ccc(-c2cn(C)c4ncnc(N)c24)c3F)n1
Procedure, shortened: as §1

nilotinib = compound: Cc1cn(-c2cc(NC(=O)c3ccc(C)c(Nc4nccc(-c5cccnc5)n4)c3)cc(C(F)(F)F)c2)cn1 [nilotinib]
Procedure, shortened: as §1

[2] = compound: Cc1nc(Nc2n[nH]c3c2CN(C(=O)N[C@H](CN(C)C)c2ccccc2)C3(C)C)c2sccc2n1
Procedure, shortened: as §1

dasatinib = compound: Cc1nc(Nc2ncc(C(=O)Nc3c(C)cccc3Cl)s2)cc(N2CCN(CCO)CC2)n1 [dasatinib]
Procedure, shortened: as §1

[3] = compound: Cc1ncc(-c2ccnc(Nc3ccc(S(C)(=O)=O)cc3)n2)n1C(C)C
Procedure, shortened: as §1

[4] = compound: Cn1cc(-c2ccc3c(c2)CCN3C(=O)Cc2cccc(C(F)(F)F)c2)c2c(N)ncnc21
Procedure, shortened: as §1

[5] = compound: Cn1cc(-c2ccc3nnc(C(F)(F)c4ccc5ncccc5c4)n3n2)cn1
Procedure, shortened: as §1

tipifarnib = compound: Cn1cncc1[C@@](N)(c1ccc(Cl)cc1)c1ccc2c(c1)c(-c1cccc(Cl)c1)cc(=O)n2C [tipifarnib]
Procedure, shortened: as §1

mubritinib = compound: FC(F)(F)c1ccc(/C=C/c2nc(COc3ccc(CCCCn4ccnn4)cc3)co2)cc1 [mubritinib]
Procedure, shortened: as §1

[6] = compound: NC(=O)Nc1cc(-c2cccc(F)c2)sc1C(=O)N[C@H]1CCCNC1
Procedure, shortened: as §1

[7] = compound: NC(=O)c1cnc(N[C@@H]2CCCC[C@@H]2N)nc1Nc1cccc(-n2nccn2)c1
Procedure, shortened: as §1

[8] = compound: NC1(c2ccc(-c3nc4ccn5c(=O)[nH]nc5c4cc3-c3ccccc3)cc2)CCC1
Procedure, shortened: as §1

[9] = compound: NCC(=O)Nc1ccc(-n2nc(C(F)(F)F)cc2-c2ccc3c(ccc4ccccc43)c2)cc1
Procedure, shortened: as §1

entinostat = compound: Nc1ccccc1NC(=O)c1ccc(CNC(=O)OCc2cccnc2)cc1 [entinostat]
Procedure, shortened: as §1

vorinostat = compound: O=C(CCCCCCC(=O)Nc1ccccc1)NO [vorinostat]
Procedure, shortened: as §1

citarinostat = compound: O=C(CCCCCCNC(=O)c1cnc(N(c2ccccc2)c2ccccc2Cl)nc1)NO [citarinostat]
Procedure, shortened: as §1

silmitasertib = compound: O=C(O)c1ccc2c(c1)nc(Nc1cccc(Cl)c1)c1ccncc12 [silmitasertib]
Procedure, shortened: as §1

[10] = compound: O=C1NC(=O)C(c2cnc3ccccn23)=C1c1cn2c3c(cc(F)cc13)CN(C(=O)N1CCCCC1)CC2
Procedure, shortened: as §1

[11] = compound: c1cc(OCCN2CCCCC2)cc(-c2n[nH]c3ccc(-c4nnc[nH]4)cc23)c1
Procedure, shortened: as §1

| Target | log2 fold change (bafetinib) | log2 fold change [1] | log2 fold change (nilotinib) | log2 fold change [2] | log2 fold change (dasatinib) | log2 fold change [3] | log2 fold change [4] | log2 fold change [5] | log2 fold change (tipifarnib) | log2 fold change (mubritinib) | log2 fold change [6] | log2 fold change [7] | log2 fold change [8] | log2 fold change [9] | log2 fold change (entinostat) | log2 fold change (vorinostat) | log2 fold change (citarinostat) | log2 fold change (silmitasertib) | log2 fold change [10] | log2 fold change [11] |
| --- | --- | --- | --- | --- | --- | --- | --- | --- | --- | --- | --- | --- | --- | --- | --- | --- | --- | --- | --- | --- |
| CCDC22 (UniProt O60826) | inactive: 0 | inactive: 0.013 | inactive: -0.034 | inactive: -0.014 | inactive: -0.087 | inactive: 0.064 | inactive: -0.025 | inactive: -0.023 | inactive: 0.014 | inactive: 0.041 | inactive: 0.052 | inactive: -0.023 | inactive: -0.16 | inactive: -0.093 | inactive: -0.034 | inactive: 0.009 | inactive: 0.022 | inactive: 0.067 | inactive: 0.079 | inactive: 0.018 |
| CCDC43 (UniProt Q96MW1) | inactive: -0.029 | inactive: 0.036 | inactive: -0.005 | inactive: -0.039 | inactive: 0.039 | inactive: -0.047 | inactive: 0.027 | inactive: 0.002 | inactive: -0.019 | inactive: 0.047 | inactive: -0.016 | inactive: -0.01 | inactive: -0.077 | inactive: 0.006 | inactive: -0.006 | inactive: 0.015 | inactive: -0.002 | inactive: 0.007 | inactive: 0.018 | inactive: -0.045 |
| CBR1 (UniProt P16152) | inactive: 0 | inactive: 0.011 | inactive: -0.012 | inactive: 0.003 | inactive: -0.02 | inactive: 0.022 | inactive: 0.081 | inactive: -0.031 | inactive: -0.044 | inactive: -0.01 | inactive: -0.002 | inactive: 0.025 | inactive: -0.029 | inactive: 0.037 | inactive: -0.008 | inactive: -0.041 | inactive: 0.033 | inactive: -0.011 | inactive: -0.039 | active: 0.235 |
| CDC37 (UniProt Q16543) | inactive: 0.007 | inactive: -0.023 | inactive: 0 | inactive: -0.007 | inactive: -0.014 | inactive: 0.008 | inactive: 0.03 | inactive: 0.007 | inactive: 0.004 | inactive: 0.018 | inactive: -0.006 | inactive: -0.015 | inactive: -0.02 | inactive: -0.006 | inactive: 0.001 | inactive: 0.029 | inactive: 0.004 | inactive: -0.016 | inactive: -0.023 | inactive: 0.017 |
| CCPG1 isoform 5 (UniProt Q9ULG6) | inactive: 0.017 | inactive: 0.068 | inactive: -0.058 | inactive: 0.041 | inactive: 0.035 | inactive: -0.065 | inactive: -0.135 | inactive: -0.025 | inactive: 0.126 | inactive: -0.169 | inactive: 0.017 | inactive: -0.016 | inactive: -0.055 | inactive: 0.09 | inactive: 0.058 | inactive: -0.021 | inactive: 0.044 | inactive: 0.015 | inactive: 0 | inactive: -0.109 |
| CCDC93 (UniProt Q567U6) | inactive: -0.034 | inactive: -0.006 | inactive: -0.078 | inactive: -0.033 | inactive: -0.201 | inactive: 0.057 | inactive: -0.076 | inactive: -0.077 | inactive: 0.022 | inactive: 0.05 | inactive: 0.013 | inactive: 0.01 | inactive: -0.028 | inactive: -0.021 | inactive: -0.012 | inactive: 0.019 | inactive: 0.038 | inactive: 0.123 | inactive: -0.051 | inactive: 0.051 |
| CASP6 (UniProt P55212) | inactive: -0.003 | inactive: 0.004 | inactive: 0.016 | inactive: 0.015 | inactive: 0.033 | inactive: -0.026 | inactive: 0.035 | inactive: -0.034 | inactive: -0.019 | inactive: 0.03 | inactive: 0.01 | inactive: 0.047 | inactive: -0.008 | inactive: 0.035 | inactive: 0 | inactive: -0.044 | inactive: 0 | inactive: -0.02 | inactive: -0.018 | inactive: 0.004 |
| CDC27 isoform 2 (UniProt P30260) | inactive: 0.016 | inactive: 0.016 | inactive: -0.005 | inactive: 0.004 | inactive: -0.019 | inactive: -0.01 | inactive: -0.037 | inactive: -0.04 | inactive: -0.006 | inactive: -0.023 | inactive: 0.005 | inactive: -0.006 | inactive: -0.033 | inactive: -0.027 | inactive: -0.03 | inactive: 0.008 | inactive: 0.013 | inactive: 0.029 | inactive: -0.01 | inactive: -0.064 |

Single records (already shown). Values in the order: log2 fold change (bafetinib)	log2 fold change [1]	log2 fold change (nilotinib)	log2 fold change [2]	log2 fold change (dasatinib)	log2 fold change [3]	log2 fold change [4]	log2 fold change [5]	log2 fold change (tipifarnib)	log2 fold change (mubritinib)	log2 fold change [6]	log2 fold change [7]	log2 fold change [8]	log2 fold change [9]	log2 fold change (entinostat)	log2 fold change (vorinostat)	log2 fold change (citarinostat)	log2 fold change (silmitasertib)	log2 fold change [10]	log2 fold change [11]
CBR1 (UniProt P16152) is listed as inactive: 0	inactive: 0.011	inactive: -0.012	inactive: 0.003	inactive: -0.02	inactive: 0.022	inactive: 0.081	inactive: -0.031	inactive: -0.044	inactive: -0.01	inactive: -0.002	inactive: 0.025	inactive: -0.029	inactive: 0.037	inactive: -0.008	inactive: -0.041	inactive: 0.033	inactive: -0.011	inactive: -0.039	active: 0.235
CASP6 (UniProt P55212) is listed as inactive: -0.003	inactive: 0.004	inactive: 0.016	inactive: 0.015	inactive: 0.033	inactive: -0.026	inactive: 0.035	inactive: -0.034	inactive: -0.019	inactive: 0.03	inactive: 0.01	inactive: 0.047	inactive: -0.008	inactive: 0.035	inactive: 0	inactive: -0.044	inactive: 0	inactive: -0.02	inactive: -0.018	inactive: 0.004
